{"source": "patent US20220273809A1", "about": "“AXL ANTIBODY-DRUG CONJUGATES FOR USE IN TREATING CANCER” (GENMAB A/S, priority 2019, published 2022)", "key": {"[1]": {"tested_on": "BLM cell line-derived xenograft", "assay": "RNA sequencing of BLM xenograft tumors with human T cells", "assay_type": "in vivo, mice", "conditions": "4 mg/kg single dose, Day 7, MART-1 T cells"}, "LXFA 526": {"tested_on": "LXFA 526", "assay": "NSCLC PDX model, innate immune cell and cytokine profiling", "assay_type": "in vivo, NMRI nu/nu mice", "conditions": "4 mg/kg i.v., after 6 days"}, "[2]": {"tested_on": "AXL-positive lung cancer PDX", "assay": "mRNA and protein profiling of AXL-positive lung cancer PDX tumors", "assay_type": "in vivo, mice", "conditions": "tumors harvested 3 or 6 days after treatment; 4 mg/kg"}}}
{"substance": "IgG1-AXL-107-vcMMAE: anti-human AXL IgG1-kappa antibody conjugated, on an average of 4 cysteinyl, to MMAE via cleavable mc-val-cit-PABC linker", "values": [{"measurement": "phenotype of infiltrated T-cells (memory vs effector gene sets)", "setting": "[1]", "result": "skewed towards a memory-like phenotype"}, {"measurement": "tumor influx of F4/80-expressing cells (immunohistochemistry)", "setting": "LXFA 526", "result": "enhanced tumor influx of F4/80-expressing cells"}, {"measurement": "gene set enrichment (mRNA) of treated vs control tumors", "setting": "[2]", "result": "causes inflammation responses in tumor cells"}]}
